Data taken from PubChem BioAssay AID1053133, deposited by Broad Institute (2014).

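Vaccinia-infected cells with a two-color viral stage reporter; Venus fluorescence read on a plate reader; the cell line is not named here; timing not stated here.
The test concentration is not given here.
Percent change in Venus reporter signal; lower (more negative) values mean stronger inhibition of that viral stage.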

Values are in %.
The controls that fix the scale are not given here.
Common to all entries: measured here: Venus reporter, other viral stage.
This is a side read-out of the assay, for part of the compounds, not drawn at random.

| # | structure | activity change (Venus) (%) |
|---|---|---|
| 1 | `COc1ccc(CN(C)C[C@H]2OCCCC[C@@H](C)Oc3ccc(NC(=O)NC4CCCCC4)cc3C(=O)N([C@H](C)CO)C[C@H]2C)cc1` | -63.39 |
| 2 | `COc1ccc(CN(C)C[C@@H]2OCCCC[C@@H](C)Oc3ccc(NC(=O)Nc4ccc(F)cc4)cc3C(=O)N([C@H](C)CO)C[C@H]2C)cc1` | -58.49 |
| 3 | `C[C@H](CO)N1C[C@H](C)[C@@H](CN(C)Cc2ccc(Oc3ccccc3)cc2)Oc2ccc(NS(=O)(=O)c3ccccc3)cc2C1=O` | -42.2 |
| 4 | `Cc1noc(C)c1S(=O)(=O)Nc1ccc2c(c1)C(=O)N([C@H](C)CO)C[C@@H](C)[C@@H](CN(C)CC1CCCCC1)OCCCC[C@@H](C)O2` | -29.48 |
| 5 | `COc1ccc(-c2ccc([C@@H]3[C@H](CO)N4CCCCN(C(=O)c5ccc(F)cc5)C[C@@H]34)cc2)cc1` | -64.32 |
| 6 | `C[C@H](CO)N1C[C@H](C)[C@@H](CN(C)Cc2ccc(F)cc2)Oc2cc(C#CCN(C)C)ccc2S1(=O)=O` | -38.28 |
| 7 | `COc1ccccc1CNC(=O)C[C@H]1C[C@H]2c3cc(NS(=O)(=O)c4ccc(F)cc4)ccc3O[C@H]2[C@H](CO)O1` | -30.42 |
| 8 | `Cc1ccc(-c2ccc3c(c2)O[C@H](CN(C)C(=O)Nc2ccc(C(F)(F)F)cc2)[C@H](C)CN([C@@H](C)CO)S3(=O)=O)cc1` | -62.74 |
| 9 | `C[C@@H]1CN([C@@H](C)CO)C(=O)Cc2cc(NC(=O)Nc3ccc4c(c3)OCO4)ccc2O[C@H]1CN(C)Cc1ccccc1` | -34.17 |
| 10 | `C[C@H]1CN([C@@H](C)CO)C(=O)c2cccc(NC(=O)NC3CCCCC3)c2O[C@@H]1CN(C)Cc1ccc(Cl)c(Cl)c1` | -34.15 |
| 11 | `COc1ccc(CN(C)C[C@@H]2OCCCC[C@H](C)Oc3ccc(NC(=O)Nc4ccc(C(F)(F)F)cc4)cc3C(=O)N([C@H](C)CO)C[C@@H]2C)cc1` | -59.07 |
| 12 | `COc1ccc(S(=O)(=O)N(C)C[C@@H]2Oc3ncc(-c4cc5ccccc5o4)cc3C(=O)N([C@H](C)CO)C[C@@H]2C)cc1` | -29.1 |
| 13 | `COc1ccc(S(=O)(=O)Nc2cccc3c2O[C@@H](CN(C)Cc2ccc(C(F)(F)F)cc2)[C@@H](C)CN([C@H](C)CO)C3=O)cc1` | -52 |
| 14 | `COc1cc(CN2[C@@H]3CNC[C@H]2C3c2ccc(-c3ccccc3)cc2)cc(OC)c1` (stereo partly shown) | -34.6 |
| 15 | `C[C@@H]1CN([C@H](C)CO)S(=O)(=O)c2ccc(C#CCC3CCCC3)cc2O[C@@H]1CN(C)C(=O)CN(C)C` | -80.41 |
| 16 | `CN1c2ccc(-c3ccc(C#N)cc3)cc2[C@@H]2[C@@H](CCN2S(=O)(=O)c2cccc(F)c2)[C@@H]1CO` | -33.8 |
| 17 | `CCCNC(=O)N1CC(=O)N2[C@H](CO)[C@@H](c3ccc(C#CCC4CCCC4)cc3)[C@@H]2C1` | -50.31 |
| 18 | `C[C@H](CO)N1C[C@H](C)[C@@H](CN(C)C)Oc2cc(C#Cc3ccc(F)cc3)ccc2S1(=O)=O` | -39.77 |
| 19 | `C[C@H](CO)N1C[C@H](C)[C@@H](CN(C)S(=O)(=O)c2ccc(Cl)cc2)OCCCC[C@H](C)Oc2ccc(NS(=O)(=O)c3ccccc3)cc2C1=O` | -20.03 |
| 20 | `COc1ccc(S(=O)(=O)Nc2ccc3c(c2)C(=O)N([C@@H](C)CO)C[C@H](C)[C@H](CN(C)Cc2ccc(Oc4ccccc4)cc2)O3)cc1` | -37.43 |
| 21 | `CC(C)C#Cc1ccc2c(c1)O[C@H](CN(C)C(=O)c1ccccc1)[C@H](C)CN([C@@H](C)CO)S2(=O)=O` | -33.05 |
| 22 | `C[C@@H]1CN([C@H](C)CO)C(=O)c2cc(NS(=O)(=O)c3ccccc3)ccc2O[C@@H](C)CCCCO[C@H]1CN(C)S(=O)(=O)c1ccccc1` | -37.68 |
| 23 | `COc1ccccc1C#Cc1ccc2c(c1)O[C@H](CN(C)Cc1ccncc1)[C@H](C)CN([C@@H](C)CO)S2(=O)=O` | -32.84 |
| 24 | `COc1cccc(-c2ccc3c(c2)[C@H]2[C@H](CCN2C(=O)C2CCCC2)[C@H](CO)N3)c1` | -28.57 |
| 25 | `Cc1noc(C)c1S(=O)(=O)Nc1ccc2c(c1)C(=O)N([C@@H](C)CO)C[C@@H](C)[C@H](CN(C)C(=O)Nc1ccc(C(F)(F)F)cc1)OCCCC[C@@H](C)O2` | -28.51 |
| 26 | `C[C@H](CO)N1C[C@H](C)[C@@H](CN(C)Cc2ccncc2)Oc2cc(C3=CCCCC3)ccc2S1(=O)=O` | -31.26 |
| 27 | `COc1ccc(C#Cc2ccc3c(c2)O[C@H](CN(C)C(=O)Nc2cccc(OC)c2)[C@@H](C)CN([C@@H](C)CO)S3(=O)=O)cc1` | -23.81 |
| 28 | `O=C(C[C@@H]1CC[C@@H]2[C@H](COC[C@H](O)CN2Cc2cccc(-c3ccncc3)c2)O1)N1CCN(c2ccccc2)CC1` | -40.38 |
| 29 | `Cc1ccccc1-c1ccc([C@@H]2[C@H]3CN(C(=O)Nc4cccc(F)c4)CCCCN3[C@H]2CO)cc1` | -44.45 |
| 30 | `O=C(C[C@H]1C[C@@H]2c3cc(NC(=O)Cc4ccncc4)ccc3O[C@@H]2[C@H](CO)O1)NCc1cccnc1` | -39.11 |
| 31 | `C[C@H]1CN([C@@H](C)CO)C(=O)Cc2cc(NS(=O)(=O)c3ccccc3)ccc2O[C@@H]1CN(C)Cc1ccc(C(F)(F)F)cc1` | -35.21 |

Some entries from above, unchanged:

structure,activity change (Venus) (%)
C[C@H]1CN([C@@H](C)CO)C(=O)c2cccc(NC(=O)NC3CCCCC3)c2O[C@@H]1CN(C)Cc1ccc(Cl)c(Cl)c1,-34.15
C[C@H]1CN([C@@H](C)CO)C(=O)Cc2cc(NS(=O)(=O)c3ccccc3)ccc2O[C@@H]1CN(C)Cc1ccc(C(F)(F)F)cc1,-35.21
C[C@H](CO)N1C[C@H](C)[C@@H](CN(C)Cc2ccncc2)Oc2cc(C3=CCCCC3)ccc2S1(=O)=O,-31.26
COc1ccc(C#Cc2ccc3c(c2)O[C@H](CN(C)C(=O)Nc2cccc(OC)c2)[C@@H](C)CN([C@@H](C)CO)S3(=O)=O)cc1,-23.81